The values below come from article PMC6751215.

These are yes or no findings as the source states them, for the method shown. Some binding calls cover weakened binding; strength is not graded here.

The target in this experiment is VIRE2-… PROTEIN2 (VIP2), full length (Arabidopsis) (UniProt Q9FPW4). Put plainly: two-hybrid; VIP2 constructs and VirE2 in the DNA-BD vector pXDGAT-CY86 (baits), full-length VIP2 and VirE2 in the DNA-AD vector pGADT7-Rec7G (preys); co-transformed into AH109 (the legend says mating of AH109 and MaV204K); selection on SD lacking Ade, His, Trp, Leu with 10 mM 3-AT and X-gal; LacZ quantified by beta-galactosidase activity.

B1: VIRE2-… PROTEIN2 (VIP2), full length (protein, UniProt Q9FPW4 1-614)
chain: MSNLHSSLNGSASNLPDGSGRSFTASYSGQSGAPSPSFHHTGNLQGLHNIHGNYNVGNMQGTLTSRNSSMNSIPSAGVQQPNGSFSSGRFASNNLPVNLSQLSHGSSHGHSGIPNRGLNVVGNPGFSSNANGVGGSIPGILSTSAGLSNRNSVPGMGISQLLGNSGPRITNSMGNMVGGGNLGRNISSGGLSIPGLSSRLNLAANSGSGLNVQGQNRMMGGVLPQGSQVMSMLGNSYHTGGGPLSQNHVQSVNNMMLSDHPNDSSLFDINNDFPQLTSRPGSAGGTQGHLGSLRKQGLGVPLVQQNQEFSIQNEDFPALPGYKGGNSEYPMDLHQKEQLHDNAMSMMHSQNFSMGRSGGFNLGATYSSHRPQQQPQHTSSTGGLQGLGLRPLSSPNAVSSIGYDQLIQQYQQHQNQSQFPVQQMSSINQFRDSEMKSTQSEADPFCLLGLLDVLNRSNPELTSLALGIDLTTLGLDLNSTGNLYKTFASPWTNEPAKSEVEFTVPNCYYATEPPPLTRASFKRFSYELLFYTFYSMPKDEAQLYAADELYERGWFYHKELRVWFFRVGEPLVRAATYERGTYEYLDPNSFKTVRKEHFVIKYELMEKRPSLLQL
As to B1, the binding result was “binds”.
